Source: PubChem BioAssay AID2685 (National Center for Advancing Translational Sciences (NCATS), 2010)
This is one part of the list. Further columns of the screen follow, without active or inactive calls. The list favours compounds with an active or inconclusive main result. Potencies come from curve fits of mixed quality, noted in brackets.

Test: qHTS Assay for Lipid Storage Modulators in Drosophila S3 Cells;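 for cell number change: cells counted by Cell Tracker Red CMTPX staining in the red channel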
Settings: BODIPY lipid droplet fluorescence, 18-24 h; for cell number change: measured here: cell count max response, cells fed with added oleic acid
Outline: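 Drosophila S3 cells loaded with oleic acid (400 uM, as added) and compounds at several concentrations; lipid droplets imaged by 488-nm laser-scanning cytometry, 500–530 nm intensity and object ratio to cell channel. Percent activity normalized to 20 uM Triacsin C.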

[1] = measured here: cell number channel AC50, cells fed with added oleic acid
[2] = measured here: lipid fluorescence (Fed channel) AC50, cells fed with added oleic acid

Row | SMILES | cell number change [%] | AC50 [1] | AC50 [2]
1 | Cc1ccc(C(=O)N/C(=C\c2cccs2)C(=O)NCCCN2CCOCC2)cc1 | -22.2 | 0.0058 µM [falling, full curve, poor fit] | 0.13 µM [rising, full curve, poor fit]
2 | CC(NC(=O)CN1CCC(C(N)=O)CC1)c1ccccc1 (stereo not given) | -2.19 |  | 
3 | COc1ccc(NC(C)=O)cc1NC(=O)CSc1nc2ncccc2[nH]1 | -6.78 |  | 
4 | COc1ccc(OCC(=O)OCC(=O)NCc2ccco2)cc1 | -38.1 | 1.16 µM [falling, full curve] | 1.3 µM [falling, full curve]
5 | CN(C)S(=O)(=O)c1cccc(NC(=S)N/N=C/c2ccc(O)c(O)c2O)c1 | -15.2 |  | 
6 | COCc1ccc(C(=O)N2CCCC(C(=O)c3cccc(C(F)(F)F)c3)C2)o1 (stereo not given) |  |  | 9.2 µM [falling, partial curve, poor fit]
7 | CS(=O)(=O)Nc1cccc(C2=NN(C(=O)c3ccccc3Cl)C(c3ccccc3O)C2)c1 (stereo not given) | 18.8 |  | 1.3 µM [rising, full curve]
8 | O=C(CCc1ccccc1)NCCc1ccc(F)cc1 | -18.7 |  | 0.58 µM [rising, single point]
9 | CCC[C@H]1CCCC/C=C\CCCC(=O)OCCN1C(=O)OC(C)(C)C | -34.3 | 9.2 µM [falling, partial curve] | 0.13 µM [falling, full curve]
10 | CC(C)OCCCNC(=O)CNC(=O)c1ccc(Cl)c(Cl)c1 |  |  | 0.00517 µM [rising, full curve, poor fit]
11 | CCN(CCO)Cc1cc(=O)oc2cc3c(cc12)CCC3 | -40.9 | 14.6 µM [falling, partial curve] | 8.2 µM [falling, partial curve, poor fit]
12 | CCCC(=O)c1cc(F)c(N2CCN(S(=O)(=O)c3ccccc3)CC2)cc1C | -13 |  | 8.2 µM [rising, partial curve]
13 | CCOC(=O)c1sc(NC(=O)c2c(OC)cccc2OC)nc1C | 12.6 |  | 7.31 µM [rising, partial curve]
14 | COc1ccc(CCN(C)C(=O)CN2C(=O)c3ccccc3S2(=O)=O)cc1OC | 1.95 |  | 0.0259 µM [rising, full curve, poor fit]
15 | CCCCNC(=O)c1ccccc1Cl | 1.37 |  | 
16 | N/C(Cc1ccc(Cl)cc1)=N\OC(=O)Cc1ccc([N+](=O)[O-])cc1 | 22 | 1.03 µM [rising, single point] | 13 µM [rising, partial curve]
17 | Cc1ccc2cccc(N=Cc3c(C)[nH]n(-c4ccccc4)c3=O)c2n1 | -13.3 |  | 8.2 µM [falling, single point]
18 | O=c1[nH]cnc(O)c1C(c1ccc([N+](=O)[O-])cc1)c1c(O)nc[nH]c1=O | -1.76 |  | 6.51 µM [rising, single point]
19 | COc1cc(OC)c(N2CC(C(=O)Nc3cc(Cl)ccc3N3CCOCC3)CC2=O)cc1Cl (stereo not given) | 0.774 |  | 0.164 µM [rising, full curve, poor fit]
20 | CC1=C(n2nnc([N+](=O)[O-])n2)C(c2cccnc2)C(C#N)=C(N)O1 (stereo not given) | -19.7 |  | 25.9 µM [falling, single point]

Row | SMILES | cell number change [%] | AC50 [1] | AC50 [2]
21 | Cc1cc(N=Cc2c(O)n(-c3cccc(Cl)c3)c(=O)c3ccccc23)no1 | 15.7 |  | 4.61 µM [rising, full curve]
22 | COC(=O)c1sc(=S)n(-c2ccc(Cl)cc2)c1C | 41.1 | 4.61 µM [rising, full curve, poor fit] | 
23 | COc1ccc(NC(=O)CSCC(=O)Nc2cccc(S(=O)(=O)N3CCCCCC3)c2)cc1 | -17.2 |  | 
24 | O=C(N/N=C/c1ccc(F)cc1)c1cc(-c2ccccn2)nc2ccccc12 |  | 6.51 µM [rising, single point] | 
25 | CC1CCN(Cc2ccc(NC(=O)CC3Oc4ccccc4NC3=O)cc2)CC1 (stereo not given) | 10.7 |  | 
26 | COc1ccc2oc(-c3ccccc3[N+](=O)[O-])cc(=O)c2c1 | -3.74 | 3.26 µM [falling, single point] | 
27 | COc1cccc(N(C(=O)Cn2nnc(-c3cccs3)n2)C(C(=O)NC(C)C)c2ccc(C)o2)c1 (stereo not given) |  | 0.0517 µM [falling, full curve, poor fit] | 
28 | COc1ccc(CN2C(=O)c3oc4ccccc4c(=O)c3C2c2ccc(O)c(OC)c2)cc1 (stereo not given) | 18.4 |  | 23.1 µM [rising, single point]
29 | CCOC(=O)C1=C(C)Nc2sc(C(=O)c3ccc(OC)cc3)c(N)c2C1c1ccc(C(=O)OC)cc1 (stereo not given) | -12.5 | 6.51 µM [rising, partial curve, poor fit] | 6.51 µM [rising, partial curve, poor fit]
30 | CCCCn1c(-c2ccccc2)cnc1SCC(=O)NCCc1ccc(OC)c(OC)c1 | -46.9 | 11.6 µM [falling, single point] | 
31 | Cc1noc2ncnc(Oc3ccc(F)cc3)c12 | 17.7 |  | 8.2 µM [rising, partial curve]
32 | CN(C(=O)CO/N=C/c1ccc(Cl)cc1)c1ccccc1 | 73.5 | 29.1 µM [rising, single point] | 
33 | O=[N+]([O-])c1ccc(N/N=C/c2cccc(O)c2O)cc1 | -33.6 |  | 29.1 µM [falling, single point]
34 | CC(C)c1ccccc1NC(=S)NC(C)c1ccccc1 (stereo not given) |  | 6.51 µM [rising, single point] | 2.91 µM [falling, partial curve]
35 | Cc1c(O)ccc(C(=O)CN2CCN(Cc3ccccc3)CC2)c1O | 10.1 |  | 
36 | Cc1ccc(CNC(=O)C2CCCN2S(=O)(=O)c2ccc(Cl)cc2)cc1 (stereo not given) | 18.2 |  | 29.1 µM [rising, single point]
37 | CCOC(=O)c1cnc2c(Cl)cc(Cl)cc2c1NCCCN1CCOCC1 | 17.5 |  | 
38 | COc1ccc(/C=C/C(=O)Nc2cccc(S(=O)(=O)NC3=NCCCCC3)c2)cc1OC | -9.22 |  | 4.11 µM [falling, full curve]
39 | O=C(NCc1n[nH]c(=S)n1-c1ccc(Cl)c(Cl)c1)c1ccc(S(=O)(=O)N2CCCCC2)cc1 | 3.95 |  | 
40 | O=C(c1ccc2nc[nH]c2c1)N1CCN(c2ncc(C(F)(F)F)cc2Cl)CC1 |  |  | 29.1 µM [falling, single point]

Random excerpt: 2 records from the list
Row | SMILES | cell number change [%] | AC50 [1] | AC50 [2]
18 | O=c1[nH]cnc(O)c1C(c1ccc([N+](=O)[O-])cc1)c1c(O)nc[nH]c1=O | -1.76 |  | 6.51 µM [rising, single point]
19 | COc1cc(OC)c(N2CC(C(=O)Nc3cc(Cl)ccc3N3CCOCC3)CC2=O)cc1Cl (stereo not given) | 0.774 |  | 0.164 µM [rising, full curve, poor fit]

Additional structures follow:

Row | SMILES | cell number change [%] | AC50 [1] | AC50 [2]
41 | Cc1csc(=O)n1CCC(=O)OCC(=O)c1ccc(Br)cc1 | -25.1 |  | 0.58 µM [rising, single point]
42 | O=C(Nc1nncs1)c1cc2c(s1)CCC2 | 6.56 |  | 9.2 µM [falling, partial curve, poor fit]
43 | CCCCn1c(N)c(N(CCOC)C(=O)COC(=O)COc2cc(C)ccc2Cl)c(=O)[nH]c1=O | 50 | 23.1 µM [rising, single point] | 
44 | O=C(CC12CC3CC(CC(C3)C1)C2)NCO | -33 | 0.058 µM [falling, full curve] | 0.259 µM [falling, partial curve, poor fit]
45 | O=C(c1cc([N+](=O)[O-])ccc1N1CCOCC1)N1CCN(c2ccccc2)CC1 | 19.9 |  | 
46 | Cc1ccc(N2CCCCn3c2nc2c3c(=O)n(CC(=O)O)c(=O)n2C)cc1 | 9.32 |  | 20.6 µM [rising, single point]
47 | Cc1cc(C(C)(C)C)cc(C)c1COC(=O)CN1C(=O)NC2(CCCC2)C1=O | -41.1 | 32.6 µM [falling, single point] | 23.1 µM [falling, single point]
48 | CCNc1nc(=S)nc(NCc2ccccc2)[nH]1 | 47.1 |  | 
49 | COc1cccc2c1OCC(CN1CCN(C3CCCCC3)C(CCO)C1)=C2 (stereo not given) | -14 |  | 
50 | COc1ccc(/C=N/NC(=O)c2c(Br)cnn2C)c2ccccc12 | -3.66 | 0.291 µM [falling, full curve, poor fit] | 0.116 µM [falling, full curve]
51 | COc1ccc(C(=O)Nc2cc(C)nn2-c2ccc(C)cc2)cc1 | 13.3 |  | 29.1 µM [rising, single point]
52 | Cc1ccc(-c2cc(C(F)F)nc(S(C)(=O)=O)n2)cc1 | -60.2 | 1.16 µM [falling, full curve] | 1.3 µM [falling, full curve]
53 | CSc1ccccc1NC(=O)CN(C1CCCCC1)S(C)(=O)=O | -72 | 25.9 µM [falling, partial curve] | 
54 | COc1ccc2nc(C)cc(SCC(=O)Nc3c(C)cccc3C)c2c1 | 15.9 |  | 6.51 µM [rising, single point]
55 | CCOC(=O)c1c(NC(=O)CSc2nnc(CNc3ccc(OC)cc3)n2C)sc(C)c1C | 1.86 |  | 0.092 µM [rising, full curve, poor fit]
56 | CCN(CC)S(=O)(=O)c1cc(NC(=O)CNc2c(C)n(C)n(-c3ccccc3)c2=O)ccc1C | 7.98 |  | 0.00411 µM [falling, full curve, poor fit]
57 | C=CCc1ccc(OCCCOc2ccc(C)cc2OC)c(OC)c1 | 82.3 | 29.1 µM [rising, single point] | 29.1 µM [rising, single point]
58 | O=C1/C(=C/c2ccc(N3CCOCC3)o2)SC(=Nc2ccccc2)N1CCc1c[nH]c2ccccc12 | -38.2 | 3.26 µM [rising, single point] | 1.84 µM [falling, partial curve, poor fit]
59 | COc1ccc(C2CC(=O)c3ccccc3O2)cc1 (stereo not given) | -5.95 |  | 5.17 µM [rising, partial curve]
60 | O=C(CC1SC(N2CCOCC2)=NC1=O)Nc1cc([N+](=O)[O-])ccc1Cl (stereo not given) | -121 | 14.6 µM [falling, partial curve] | 
